Source: article PMC7312248
These are yes or no findings as the source states them, for the method shown. Some entries that bind do so weakly or less than the wild type. One block for each binder: values may come before it.

Experiments:
[1] = target: AtHB7 (Arabidopsis thaliana) (UniProt P46897); assay: two-hybrid; Matchmaker Gold Yeast Two-Hybrid System (TAKARA); pGBKT7 (BD) and pGADT7 (AD) fusions co-transformed into yeast; growth on medium lacking Leu, Trp, His or lacking Leu, Trp, His, Ade with 3-AT, 30 °C, 3 days
[2] = target: T1, AtHB12 (Arabidopsis thaliana) (UniProt Q9M276); assay: as above
T1 sequence: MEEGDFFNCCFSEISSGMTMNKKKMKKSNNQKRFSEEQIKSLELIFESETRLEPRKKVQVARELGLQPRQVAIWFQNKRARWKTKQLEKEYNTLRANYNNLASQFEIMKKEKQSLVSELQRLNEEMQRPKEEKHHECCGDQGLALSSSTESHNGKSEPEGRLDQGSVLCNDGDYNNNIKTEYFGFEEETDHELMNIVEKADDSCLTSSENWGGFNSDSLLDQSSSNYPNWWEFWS

- binding [1]: binds
- binding [2]: binds
B1: AtHB7 (protein, UniProt P46897 1-258)
chain: MTEGGEYSPAMMSAEPFLTMKKMKKSNHNKNNQRRFSDEQIKSLEMMFESETRLEPRKKVQLARELGLQPRQVAIWFQNKRARWKSKQLETEYNILRQNYDNLASQFESLKKEKQALVSELQRLKEATQKKTQEEERQCSGDQAVVALSSTHHESENEENRRRKPEEVRPEMEMKDDKGHHGVMCDHHDYEDDDNGYSNNIKREYFGGFEEEPDHLMNIVEPADSCLTSSDDWRGFKSDTTTLLDQSSNNYPWRDFWS

- binding [2]: binds
B2: AtHB12 (protein, UniProt Q9M276 1-235)
chain: T1 sequence
